Laboratory results: PubChem BioAssay AID686937 (Drosophila RNAi Screening Center, 2013)

Test: 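Knock-downs that reduce output of a secreted reporter enzyme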 (primary screen)
Cells: Drosophila S2 cells expressing secreted horseradish peroxidase
Reagents: long dsRNA against Drosophila genes
Duration: about 5.5 days (5 days dsRNA, then 12 h reporter induction)
Challenge: reporter expression induced after 5 days of dsRNA, read 12 h later; inducer not stated
Read-out: 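After 5 days of dsRNA and 12 h of reporter induction, medium peroxidase read by chemiluminescence and scored as per-plate z-score; higher values mean more reporter released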
Direction: z-score: higher = more reporter secreted into medium
The screen tested about 23,000 reagents; below is a random part of those with a known target gene and a result. 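Reduced-secretion tags in replicate 1 do not always agree with the z-scores; no criterion for assigning the tags was given.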 A plus sign joins genes that one reagent is predicted to hit. Not all columns of the deposit are shown. No sequences are given here. Not stated in the record: the amount of reagent.

gene | amplicon | z-score, replicate 1 | z-score, replicate 2
Cfp1 (CXXC finger protein 1) | DRSC18128 | -0.82 | -6.3
Jig | DRSC14974 | 0.15 | 0.86
tgy (twiggy) | DRSC20045 | 0.27 | 0.27
nebu (nebulosa) | DRSC09807 | 0.41 | 0.31
nebu (nebulosa) | DRSC09808 | 0.2 | 0.5
CG30273 | DRSC22059 | -0.38 | -0.75
SC35 (SR family splicing factor SC35) | DRSC02502 | -2.03 | -2
SC35 (SR family splicing factor SC35) | DRSC03425 | -0.45 | -0.19
CG30047 | DRSC05340 | 0.03 | 0.27
CG32117 | DRSC21652 | -0.47 | -0.46
CG8490 | DRSC07194 | 0.22 | 0.49
ArgRS (Arginyl-tRNA synthetase) | DRSC20138 | -0.56 | -1.99
vito (viriato) | DRSC21781 | 0.71 | -0.15
CG13067 | DRSC09950 | 0.38 | 0.32
CCDC53 (Coiled-coil domain containing 53) | DRSC03056 | 0.52 | 0.4
CG8298 | DRSC07138 | 0.38 | 0.54
CG42249 | DRSC19383 | 0.3 | 0.51
CG42249 | DRSC19826 | 0.54 | 0.59
DCTN3-p24 (Dynactin 3, p24 subunit) | DRSC04592 | -0.06 | 0.16
CG13857 | DRSC14707 | 0.37 | 0.24
senju | DRSC02366 | -0.01 | 0.04
Ahcy (Adenosylhomocysteinase) | DRSC19329 | 0.17 | 0.26
CG4951 | DRSC15682 | 0.39 | 0.57
Mrgn1 (Mahogunin ring finger 1) | DRSC20223 | 0.03 | -0.07
GNBP2 (Gram-negative bacteria binding protein 2) | DRSC10404 | 0.42 | 0.44
CG14321 | DRSC14800 | 0.29 | -0.33
Pus7 (Pseudouridine synthase 7) | DRSC10703 | 0.03 | 0.23
LanB2 (Laminin B2) | DRSC11208 | 0.19 | 0.2
l(1)G0004 (lethal (1) G0004) | DRSC20486 | 0.12 | 0.09
CG13215 | DRSC06337 | 0.42 | 0.44
lt (light) | DRSC03759 | 0.03 | 0.18
CG11808 | DRSC06088 | 0.75 | 0.57
Pp4-19C (Protein phosphatase 19C) | DRSC20559 | -0.57 | 0.11
Pp4-19C (Protein phosphatase 19C) | DRSC21251 | -0.78 | -0.04
UK114 | DRSC01973 | 0.16 | 0.08
CG13989 | DRSC02321 | 0.22 | 0.15
Chd3 | DRSC11114 | 0.41 | 0.42
CG30389 | DRSC04077 | -0.72 | -0.86
CG30389 | DRSC04452 | 0.05 | 0.42
lds (lodestar) | DRSC16988 | 0.15 | 0.09
alphaTub85E (alpha-Tubulin at 85E) | DRSC16899 | -4.4 | -4.44
Zpr1 | DRSC18432 | 0.28 | 0.22
CG16825 | DRSC02526 | 0.57 | 0.11
Best4 (Bestrophin 4) | DRSC10792 | 0.11 | 0.15
ng3 (new glue 3) | DRSC18804 | 0.38 | 0.23
CG13392 | DRSC02262 | 0.17 | 0.13
HisCl1 (Histamine-gated chloride channel subunit 1) | DRSC14945 | 0.08 | 0.43
CG14454 | DRSC11711 | 0.61 | 0.76
CG17290 | DRSC06662 | 0.54 | 0.63
mRpL21 (mitochondrial ribosomal protein L21) | DRSC11100 | 0.29 | 0.6
Tti1 (Telo2 interacting protein 1) | DRSC15163 | -0.06 | 0.11
gl (glass) | DRSC16957 | 0.32 | 0.54
GstD4 (Glutathione S transferase D4) | DRSC16685 | -0.19 | 0.2
Mtk (Metchnikowin) | DRSC07475 | 0.36 | 0.32
Alp11 (Alkaline phosphatase 11) | DRSC20080 | 0.28 | 0.15
MCU (Mitochondrial calcium uniporter) | DRSC10339 | 0.49 | 0.39
kappaTry | DRSC06146 | 0.29 | 0.26
nompC (no mechanoreceptor potential C) | DRSC03581 | 0.29 | 0.32
Ranbp16 + Lcch3 | DRSC20257 | 0.5 | 0.37
CG4666 | DRSC18379 | 0.28 | 0.49
CG14483 | DRSC06455 | 0.15 | 0.16
CG33981 + fab1 | DRSC07412 | -0.07 | -0.09
Takl1 (Tak1-like 1) | DRSC13443 | 0.02 | 0.57
Mal-A8 (Maltase A8) | DRSC07234 | 0.29 | 0.36
st (scarlet) | DRSC11399 | 0.34 | 0.5
na (narrow abdomen) | DRSC19639 | 0.3 | 0.03
E(Pc) (Enhancer of Polycomb) | DRSC05281 | -2.74 | -1.58
E(Pc) (Enhancer of Polycomb) | DRSC07408 | -4.5 | -2.05
Cpr76Bd (Cuticular protein 76Bd) | DRSC11063 | 0.52 | 0.23
bisc (biscotti) | DRSC04083 | 0.05 | 0.09
Su(var)3-3 (Suppressor of variegation 3-3) | DRSC10250 | 0.13 | 0.4
CG10467 | DRSC09728 | 0.16 | 0.24
CG12493 | DRSC08279 | 0.6 | 0.41
vn (vein) | DRSC11408 | -0.05 | -0.8
CG13050 | DRSC09931 | 0.34 | 0.34
tio (tiptop) | DRSC03739 | 0.36 | 0.22
CG42748 | DRSC03712 | -0.06 | 0.14
CG42748 | DRSC03713 | 0.44 | 0.33
CG42748 | DRSC03734 | -0.07 | 0.06
Acbp5 (Acyl-CoA binding protein 5) | DRSC10548 | 0.45 | 0.32
cd (cardinal) | DRSC16157 | 0.46 | 0.12
CG10752 | DRSC09799 | 0.31 | 0.21

9 of these entries, reformatted.
{"gene": "Pp4-19C (Protein phosphatase 19C)", "amplicon": "DRSC21251", "z-score, replicate 1": -0.78, "z-score, replicate 2": -0.04}
{"gene": "UK114", "amplicon": "DRSC01973", "z-score, replicate 1": 0.16, "z-score, replicate 2": 0.08}
{"gene": "CG13989", "amplicon": "DRSC02321", "z-score, replicate 1": 0.22, "z-score, replicate 2": 0.15}
{"gene": "Chd3", "amplicon": "DRSC11114", "z-score, replicate 1": 0.41, "z-score, replicate 2": 0.42}
{"gene": "CG30389", "amplicon": "DRSC04077", "z-score, replicate 1": -0.72, "z-score, replicate 2": -0.86}
{"gene": "CG30389", "amplicon": "DRSC04452", "z-score, replicate 1": 0.05, "z-score, replicate 2": 0.42}
{"gene": "lds (lodestar)", "amplicon": "DRSC16988", "z-score, replicate 1": 0.15, "z-score, replicate 2": 0.09}
{"gene": "alphaTub85E (alpha-Tubulin at 85E)", "amplicon": "DRSC16899", "z-score, replicate 1": -4.4, "z-score, replicate 2": -4.44}
{"gene": "Zpr1", "amplicon": "DRSC18432", "z-score, replicate 1": 0.28, "z-score, replicate 2": 0.22}
